Assay results as given in PubChem BioAssay AID2549 (National Center for Advancing Translational Sciences (NCATS), 2010).
Among all 240,000 compounds or so, about 1,300 (0.54%) were called active. This list was built around the results that the source calls inconclusive (neither active nor inactive); the mix of calls is not that of the screen. Calls come from the whole dose curve; as a rule, active = well fitted inhibition curve with a large enough effect; inconclusive = small, poorly fitted or top-dose-only effect; inactive = flat fitted curve, though single readings scatter. Potencies of inconclusive entries are doubtful fits and often do not repeat.

By UniProt entry, the sequences of proteins in these tests, tags left out. Where a name states a change or a piece, a line headed by the entry shows the natural chain unless it says otherwise.
UniProt P46063: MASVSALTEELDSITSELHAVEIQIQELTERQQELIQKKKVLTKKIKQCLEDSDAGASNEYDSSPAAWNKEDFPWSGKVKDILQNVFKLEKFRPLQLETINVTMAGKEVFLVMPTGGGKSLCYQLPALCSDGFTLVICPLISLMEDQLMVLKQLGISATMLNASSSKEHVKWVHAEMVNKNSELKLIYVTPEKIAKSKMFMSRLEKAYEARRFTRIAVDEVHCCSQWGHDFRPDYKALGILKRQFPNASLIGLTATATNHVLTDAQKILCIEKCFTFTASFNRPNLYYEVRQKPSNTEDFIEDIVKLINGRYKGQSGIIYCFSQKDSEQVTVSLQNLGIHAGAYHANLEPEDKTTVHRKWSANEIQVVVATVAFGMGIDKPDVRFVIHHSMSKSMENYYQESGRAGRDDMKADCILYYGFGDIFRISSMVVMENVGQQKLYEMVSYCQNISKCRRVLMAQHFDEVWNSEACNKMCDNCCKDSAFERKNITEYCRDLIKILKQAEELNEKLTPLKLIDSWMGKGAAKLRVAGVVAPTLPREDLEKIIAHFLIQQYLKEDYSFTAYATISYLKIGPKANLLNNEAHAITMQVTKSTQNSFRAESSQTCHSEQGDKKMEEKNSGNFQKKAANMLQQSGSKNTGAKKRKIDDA

Each molecule was assayed against ATP-dependent DNA helicase Q1 (Homo sapiens) (UniProt P46063) (assay: qHTS Assay for Inhibitors of RecQ-Like Dna Helicase 1 (RECQ1)). Conditions: RECQ1 DNA unwinding, red fluorescence kinetic read; series mostly up to 57.3 µM.
How it was run: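 50 nM RECQ1T1 preincubated 15 min with compound in Tris pH 8.0 buffer with MgCl2, DTT, Tween-20 and 2.5 ug/ml poly(dI-dC); started with 200 nM TAMRA/BHQ-2 forked duplex and 2 mM ATP. Unwinding read as fluorescence (525/598 nm), two reads 2 h apart.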
Note: nearly all actives have a fitted effect of over 30% in size.
Potency is the fitted concentration of half-maximal effect.

Row | Compound | Potency
1 | CN(C)c1ccc(/C=C/c2ccc3c4ccccc4ccc3[n+]2-c2ccccc2)cc1 | active: 20 µM
2 | COc1ccc2c(c1)c(C1=C(c3c[nH]c4ccccc34)C(=O)NC1=O)cn2CCCN(C)C | inactive
3 | O=[N+]([O-])c1ccccc1OCCCn1cnc2ccccc21 | inactive
4 | CCOC(=O)c1ccc2c(c1)nc(SCC(=O)c1cc3ccccc3o1)n2CC | inconclusive: 31.6 µM [inhibitor, single point]
5 | Cc1cc(C(=O)CN2C(=O)NC3(CCCCC3)C2=O)c(C)n1C | inconclusive: 2.82 µM [inhibitor, partial curve]
6 | O=C(O)COc1ccccc1/C=N/NC(=O)CSc1nc2ccccc2n1Cc1ccc(Cl)cc1 | inconclusive: 39.8 µM [inhibitor, single point]
7 | CC(C)(C)C(=O)OCc1nc(-c2ccc(O)c(O)c2)cs1 | inconclusive: 28.2 µM [inhibitor, partial curve, poor fit]
8 | O=C(O)CCCN1C(=O)/C(=C\c2ccco2)SC1=S | inconclusive: 39.8 µM [inhibitor, single point]
9 | CCc1ccc(OCC(=O)c2c(O)c3ccccc3oc2=O)cc1 | inconclusive: 2.82 µM [inhibitor, partial curve]
10 | COCCn1c(C)cc(C(=O)COC(=O)c2ccc(NC(=O)CC#N)cc2)c1C | active: 31.6 µM
11 | S=c1ccss1 | inactive
12 | O=C(CCCOc1ccc(Cl)cc1Cl)Nc1ccncc1 | inactive
13 | C#CCOCCOCCOCCNc1nc(N2CCN(C(=O)[C@H](Cc3ccc(O)cc3)n3cc(CCO)nn3)CC2)nc(N2CCN(C(=O)[C@H](Cc3ccc(O)cc3)n3cc(CCO)nn3)CC2)n1 | active: 31.6 µM
14 | N#CC1=C(SCC(=O)c2cc3ccccc3oc2=O)NC(=O)C(C#N)C12CCCC2 (stereo not given) | inconclusive: 35.5 µM [inhibitor, single point]
15 | CN(C)/C=C1\C=C2C(=O)c3ccccc3N2C1=O | inconclusive: 25.1 µM [inhibitor, partial curve, poor fit]
16 | Cn1c(CNS(=O)(=O)c2ccc(F)cc2)n[nH]c1=S | inconclusive: 39.8 µM [inhibitor, single point]
17 | CC1(C)CC(NC(=S)NC2CC2)CC(C)(C)N1 | inconclusive: 39.8 µM [inhibitor, single point]
18 | COc1ccccc1/C=C/C(=O)Nc1cccc(S(=O)(=O)NC2=NCCCCC2)c1 | inactive
19 | NC1=NC[C@H](Cc2ccccc2)N1CCCCC1CCCCC1 | inconclusive: 6.31 µM [inhibitor, single point]
20 | CN(C)CC1CCn2c(c(C3=C(c4cn(C)c5ccccc45)C(=O)NC3=O)c3ccccc32)C1 (stereo not given) | inconclusive: 35.5 µM [inhibitor, single point]
21 | Cc1ccc(-n2nc(C)c3c2OC(N)=C(C#N)C3c2ccoc2)cc1 (stereo not given) | inconclusive: 35.5 µM [inhibitor, single point]
22 | COC(=O)C1=C(NC(=O)c2cccc(OC)c2)CCS1 | inconclusive: 7.08 µM [inhibitor, full curve]
23 | COc1ccc(/C=C(\NC(=O)c2ccc(OCC(C)C)cc2)C(=O)OCc2ccco2)cc1 | inconclusive: 6.31 µM [inhibitor, single point]

Compounds above with an NH in an aromatic ring (two):
Row | Compound | Potency
2 | COc1ccc2c(c1)c(C1=C(c3c[nH]c4ccccc34)C(=O)NC1=O)cn2CCCN(C)C | inactive
16 | Cn1c(CNS(=O)(=O)c2ccc(F)cc2)n[nH]c1=S | inconclusive: 39.8 µM [inhibitor, single point]

Further structures follow.

Row | Compound | Potency
24 | O=c1cc2c(=O)oc3cc(O)c(O)oc3c2c(O)c1O | active: 4.47 µM
25 | CN1CCc2c(sc(NC(=O)c3cc4cc([N+](=O)[O-])ccc4s3)c2C(N)=O)C1 | inconclusive: 31.6 µM [inhibitor, single point]
26 | OC1c2ccccc2N=C2CCCN21 (stereo not given) | inactive
27 | COc1ccc(CNc2nc3ccccc3n2Cc2ccc(C)cc2)cc1OC | inactive
28 | Cc1csc(SCC(=O)Nc2sc3c(c2C#N)CCC3)n1 | inconclusive: 10 µM [inhibitor, partial curve]
29 | CC1=C2[C@@H]([C@H](C)CC[C@H]2/C=C(\C)C(=O)O)[C@H](O)C1 | inactive
30 | O=C(NCc1ccccn1)c1cc(-c2ccccc2Cl)on1 | inactive
31 | COc1cc(S(=O)(=O)N2CCOCC2)ccc1NC(=O)CSc1n[nH]c(=O)[nH]c1=O | inconclusive: 0.794 µM [inhibitor, single point]
32 | CCCCn1c(SCC(=O)NCc2ccco2)nc2ccc(N3CCOCC3)cc2c1=O | inconclusive: 35.5 µM [inhibitor, single point]
33 | CC1(C)CC(=O)C2=C(C1)Nc1cc(Cl)ccc1S2 | inconclusive: 28.2 µM [inhibitor, partial curve]
34 | O=C1OC(=O)C2C3CCC(O3)C12 (stereo not given) | inactive
35 | COc1ccccc1Nc1nc(-c2cccc([N+](=O)[O-])c2)cs1 | inconclusive: 39.8 µM [inhibitor, single point]
36 | Cn1c(SCC(=O)Nc2ccc(F)cc2)nnc1-c1cccnc1 | inconclusive: 6.31 µM [inhibitor, full curve]
37 | C#CCNC(=O)C1=C[C@@H](c2ccc(Br)cc2)[C@H](CCCO)[C@@H](OCC)O1 | inconclusive: 7.94 µM [inhibitor, partial curve, poor fit]
38 | CCOc1cccc(/C=N/N2C(=O)CSC2=S)c1O | inconclusive: 39.8 µM [inhibitor, single point]
39 | CCCCC1=C([O-])C2N=CC=CC2=[N+](c2ccccn2)C1=O (stereo not given) | inconclusive: 0.1 µM [inhibitor, full curve]
40 | CCc1cc(C(=O)N=Nc2c(O)[nH]c3ccc([N+](=O)[O-])cc23)c2ccccc2n1 | inactive
41 | CCNC(=O)CSc1ncnc2sccc12 | inconclusive: 31.6 µM [inhibitor, single point]
42 | COc1ccc2[nH]c3c(NCCCN4CCCC4=O)ncnc3c2c1 | inconclusive: 7.08 µM [inhibitor, single point]
43 | c1coc(-c2nc(-c3ccco3)c(-c3ccco3)nc2-c2ccco2)c1 | active: 3.98 µM
44 | O=c1[nH][nH]c(C(F)(F)F)c1C=Nc1ccc(Cl)cc1 | inconclusive: 0.141 µM [inhibitor, partial curve, poor fit]
45 | CCCN(c1nc(C)cc(OC)n1)S(=O)(=O)c1ccccc1 | inconclusive: 39.8 µM [inhibitor, single point]

Some of the entries so far, as a markdown table.

| Row | Compound | Potency |
| --- | --- | --- |
| 28 | Cc1csc(SCC(=O)Nc2sc3c(c2C#N)CCC3)n1 | inconclusive: 10 µM [inhibitor, partial curve] |
| 29 | CC1=C2[C@@H]([C@H](C)CC[C@H]2/C=C(\C)C(=O)O)[C@H](O)C1 | inactive |
